The values that follow come from doi:10.1101/2021.01.20.427402.

Residue numbers refer to the chain shown, from its start. These are yes or no findings as the source states them, for the method shown. Binding seen in cells or lysates may run through a third protein. A yes stands for co-enrichment or nearness to the bait. Other partners may have been found. Sequences can lack the tags named with a protein.

In test [1] the target is T1, GFP-Zαβ^DAI quadruple mutant (N46A/Y50A/N141A/Y145A) (human) (UniProt Q9H171).
T1 sequence: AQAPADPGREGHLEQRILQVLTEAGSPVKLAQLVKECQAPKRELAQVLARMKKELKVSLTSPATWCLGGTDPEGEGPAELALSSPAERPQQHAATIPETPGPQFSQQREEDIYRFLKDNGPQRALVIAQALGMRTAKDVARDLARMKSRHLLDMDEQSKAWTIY
Nature of the test: affinity purification with mass spectrometry.

Test [2] concerns the target T2, GFP-Zαβ^DAI fusion (amino-terminal region of human DAI, residues Ala2-Tyr165, with N-terminal LAP-tag) (human) (UniProt Q9H171).
T2 sequence: T1 sequence with A45N, A49Y, A140N, A144Y
Nature of the test: affinity purification with mass spectrometry.

B1: Ataxin-2-like protein (protein, UniProt Q8WWM7 1-1075)
chain: MLKPQPLQQPSQPQQPPPTQQAVARRPPGGTSPPNGGLPGPLATSAAPPGPPAAASPCLGPVAAAGSGLRRGAEGILAPQPPPPQQHQERPGAAAIGSARGQSTGKGPPQSPVFEGVYNNSRMLHFLTAVVGSTCDVKVKNGTTYEGIFKTLSSKFELAVDAVHRKASEPAGGPRREDIVDTMVFKPSDVMLVHFRNVDFNYATKDKFTDSAIAMNSKVNGEHKEKVLQRWEGGDSNSDDYDLESDMSNGWDPNEMFKFNEENYGVKTTYDSSLSSYTVPLEKDNSEEFRQRELRAAQLAREIESSPQYRLRIAMENDDGRTEEEKHSAVQRQGSGRESPSLASREGKYIPLPQRVREGPRGGVRCSSSRGGRPGLSSLPPRGPHHLDNSSPGPGSEARGINGGPSRMSPKAQRPLRGAKTLSSPSNRPSGETSVPPPPAVGRMYPPRSPKSAAPAPISASCPEPPIGSAVPTSSASIPVTSSVSDPGVGSISPASPKISLAPTDVKELSTKEPGRTLEPQELARIAGKVPGLQNEQKRFQLEELRKFGAQFKLQPSSSPENSLDPFPPRILKEEPKGKEKEVDGLLTSEPMGSPVSSKTESVSDKEDKPPLAPSGGTEGPEQPPPPCPSQTGSPPVGLIKGEDKDEGPVAEQVKKSTLNPNAKEFNPTKPLLSVNKSTSTPTSPGPRTHSTPSIPVLTAGQSGLYSPQYISYIPQIHMGPAVQAPQMYPYPVSNSVPGQQGKYRGAKGSLPPQRSDQHQPASAPPMMQAAAAAGPPLVAATPYSSYIPYNPQQFPGQPAMMQPMAHYPSQPVFAPMLQSNPRMLTSGSHPQAIVSSSTPQYPSAEQPTPQALYATVHQSYPHHATQLHAHQPQPATTPTGSQPQSQHAAPSPVQHQAGQAPHLGSGQPQQNLYHPGALTGTPPSLPPGPSAQSPQSSFPQPAAVYAIHHQQLPHGFTNMAHVTQAHVQTGITAAPPPHPGAPHPPQVMLLHPPQSHGGPPQGAVPQSGVPALSASTPSPYPYIGHPQGEQPGQAPGFPGGADDRIREFSLAGGIWHGRAEGLQVGQDARVLGGE
In the case of B1, the binding result in test [1] and in test [2] was “binds” throughout.
